The list shows a part of the results.
What follows are compounds tested on T1, CTL2-GFP (C. trachomatis L2/434/Bu, GFP-expressing). Details: bulk GFP, single well; 28.5 h, 10 µM; inhibitor.
T1 construct: L2/434/Bu, GFP-expressing
Set-up: species or system HeLa; Intracellular C. trachomatis growth in HeLa cells, bulk GFP fluorescence relative to DMSO

| SMILES | % of control remaining [%] |
| --- | --- |
| O=C(NCC1(O)CCSCC1)c1cc2ccccc2[nH]1 [CBK305199] | 122.534 |
| Cc1cc(CNC(=O)/C=C/c2ccc(C(C)C)cc2)no1 [CBK149614] | 79.4799 |
| CC(C)(C)c1cc(C(=O)NCC(=O)NCC(=O)O)cc(C(C)(C)C)c1 [CBK262200] | 109.475 |
| CC(=O)NC(c1ccccn1)C1CCCN(C(=O)C(C)C)C1 (stereo not drawn) [CBK285030] | 110.196 |
| OC/C=C/c1cnc2ccccc2c1 [CBK001749] | 110.001 |
| CCC(CC)NS(=O)(=O)c1cccc(C(=O)O)c1 [CBK287225] | 125.9 |
| O=C(CN1C(=O)/C(=C/c2ccccc2)SC1=S)Nc1cccc(C(=O)O)c1 [CBK262171] | 111.892 |
| COC(=O)c1cc(C#N)c(=O)n(CC(=O)N(C)Cc2ccsc2)c1 [CBK297788] | 123.015 |
| NC(=O)C1(Cc2ccccc2-c2ccccc2)CCN(C(=O)Cc2ccccc2)CC1 [CBK285909] | 113.264 |
| CC1(C)CC(NC(=O)CN2CCCCC2)CC(C)(C)N1 [CBK261956] | 137.177 |
| COc1ccc([C@@]23CC[C@@H](NC(=O)Nc4ccc(Cl)cc4Cl)C[C@@H]2CN(C)C3)cc1OC [CBK085798T] | 83.5991 |
| CCCN1CCC(N(C)CCN(CC)CC)CC1 [CBK261935] | 108.258 |
| COc1ccc(OCCNC(=O)c2cc(-c3cccnc3)cnc2N2CCOCC2)cc1 [CBK076341] | 100 |
| O=C(NCc1cccc(C(F)(F)F)c1)N1CCCCC1CO (stereo not drawn) [CBK156165] | 114.843 |
| Cc1cc(C)nc(NC(=O)c2c(Cl)cccc2Cl)n1 [CBK058401] | 150.034 |
| OCC(O)/C=N/Nc1nc(N2CCCCC2)nc(N2CCCCC2)n1 (stereo not drawn) [CBK019423] | 130.999 |
| O=C(CSc1nnc(-c2cccnc2)n1-c1ccc(Br)cc1)Nc1ccc2c(c1)OCCO2 [CBK266133] | 125.691 |
| C=CCc1cc(C)cc(C)c1OCCN1CCN(C)CC1 [CBK269672C] | 135.85 |
| Nc1nnc(SCc2nc(=O)c3ccccc3[nH]2)s1 [CBK270059] | 117.484 |
| O=C(c1cccnc1)N1CCc2ccccc21 [CBK200279] | 88.3791 |
| COc1ccc2ccccc2c1CNCCCN1CCOCC1 [CBK278209C] | 131.861 |
| Cc1csc2c(C3CCN(C(=O)c4ccn(C)n4)CC3)nc(C)n12 [CBK285248] | 102.908 |
| CCOC(=O)c1c(NC(=S)N2CCN(S(C)(=O)=O)CC2)sc(C)c1-c1ccccc1 [CBK267072] | 128.975 |
| O=S(=O)(Nc1nccnc1-c1ccc2c(c1)OCO2)c1cccc(Cl)c1 [CBK050951] | 94.3515 |
| C[C@]12CN(Cc3cccc(C#Cc4ccccc4)c3)C[C@H]1C(=O)Nc1ccccc1C(=O)N2 [CBK286403] | 139.349 |
| CCc1nc2ccc(C(=O)N3CCN(C)CC3)cn2c1N(C)Cc1nccn1C [CBK146299] | 84.8882 |

Fetched one by one from the entries so far (two):

| SMILES | % of control remaining [%] |
| --- | --- |
| COc1ccc(OCCNC(=O)c2cc(-c3cccnc3)cnc2N2CCOCC2)cc1 [CBK076341] | 100 |
| CC(=O)NC(c1ccccn1)C1CCCN(C(=O)C(C)C)C1 (stereo not drawn) [CBK285030] | 110.196 |

Additional records follow:

| SMILES | % of control remaining [%] |
| --- | --- |
| Cc1nc(-c2cccnc2)[nH]c(=O)c1CCC(=O)N1CC2CCC1C2 (stereo not drawn) [CBK304198] | 134.779 |
| CCCCn1c(CSc2ncccc2C(=O)O)nc2cc(S(=O)(=O)N3CCOCC3)ccc21 [CBK297558] | 114.664 |
| CN1CCC(N2CCN(C(=O)NCCCN3CCCC3=O)CC2)CC1 [CBK156105] | 121.087 |
| CC(C)(C(=O)N1CCC(CC(=O)NCCc2ccccc2F)CC1)c1ccc(F)cc1 [CBK286497] | 113.657 |
| CC(C)CN1CCN(S(=O)(=O)c2ccc(C(F)(F)F)cc2Cl)CC1 [CBK062740] | 111.241 |
| Cc1ccccc1OC(C)C(=O)Nn1cnnc1 (stereo not drawn) [CBK268619] | 141.588 |
| CCN(CC)C(=O)Cn1nc2c(C)cc3ccccc3n2c1=O [CBK283879] | 146.554 |
| CCOc1cc(NC2CCN(C(=O)C3(CC(C)C)CCC3)CC2)ncn1 [CBK304136] | 81.1497 |
| COc1cccc(NC(=O)c2ccnc(Cl)c2)c1 [CBK174661] | 94.0129 |
| Cc1cc(C)cc(NC(=O)NCCc2cccs2)c1 [CBK044998] | 119.121 |
| O=C(O)CCC(=O)N1C[C@@H]2C[C@H](C1)c1c(-c3ccc(Cl)cc3)ccc(=O)n1C2 [CBK289190] | 132.469 |
| Cc1ccc(S(=O)(=O)CC(=O)Nc2nc3ccc(C)cc3s2)cc1 [CBK287705] | 128.076 |
| Cc1cc(-c2cn3cc(C(=O)N4CCCC4)nc3c(=O)n2C)c(C)o1 [CBK307300] | 125.646 |
| CC(C)COc1ccc(-c2nonc2NC(=O)c2ccco2)cc1 [CBK299802] | 128.574 |
| CCC(O)CNc1ccc(C(=O)N2CCC(N3CCOCC3)CC2)cn1 (stereo not drawn) [CBK306865] | 133.665 |
| CS(=O)(=O)Nc1cc2ccccc2c(-c2ccc3c(c2)CCO3)n1 [CBK073773] | 108.231 |
| CC(C)NC(=O)C[C@@H]1CCNC[C@@H]1Cc1cc(-c2ccccc2)on1 [CBK289147] | 134.324 |
| CN1CCN(Cc2ccccc2[N+](=O)[O-])CC1 [CBK261524] | 118.149 |
| Cc1cc(C[C@@H]2COC[C@H]2NCc2ccc(C)c(C)c2)on1 [CBK284883] | 79.7032 |
| Cn1nccc1C(=O)C1CCN(C(=O)c2cccs2)CC1 [CBK284424] | 104.892 |
| Cc1ccc2nc(C)c(CCC(=O)O)c(O)c2c1 [CBK262946] | 107.57 |
| CC(C)C(=O)Nc1cc2ccccc2c(-c2cccnc2)n1 [CBK073786] | 107.839 |
| O=C(c1ccsc1NS(=O)(=O)c1cc(Cl)sc1Cl)N1CCOCC1 [CBK042288] | 100 |
| Cc1cnc(NC(=O)C2CC(=O)N(Cc3cccs3)C2)s1 (stereo not drawn) [CBK175531] | 102.506 |
| O=C(COc1ccccc1[N+](=O)[O-])Nc1ccc(Cl)c(-c2nc3ncccc3o2)c1 [CBK268811] | 154.911 |

Reference: article PMC12040169 (PLOS Biology, 2025)
